# PubChem BioAssay AID686937 | Drosophila RNAi Screening Center – 2013
# Test: 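Genes in the fly needed for secretion of protein constitutively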 (primary screen)
# System: Drosophila S2 cells expressing secreted horseradish peroxidase
# Knock-down reagent: long dsRNA against Drosophila genes
# Duration: about 5.5 days (5 days dsRNA, then 12 h reporter induction)
# Treatment: reporter expression induced after 5 days of dsRNA, read 12 h later; inducer not stated
# Detection: 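After 5 days of dsRNA and 12 h of reporter induction, medium peroxidase read by chemiluminescence and scored as per-plate z-score; higher values mean more reporter released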
# Scale: z-score: higher = more reporter secreted into medium
# In all, the deposit lists about 23,000 reagents; shown is an unselected part of those with a known target gene and a result. 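Reduced-secretion tags in replicate 1 do not always agree with the z-scores; no criterion for assigning the tags was given.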 The numbers tell different reagents against one gene apart. Names joined by + are all predicted targets of the reagent. Further read-outs or replicates are left out here. No sequences are given here. Not given: the amount of reagent.
Gene,dsRNA no.,"z-score, replicate 1","z-score, replicate 2"
Cpr67Fa1,1,0.53,0.22
Hsp60A,1,-0.11,-0.17
retm,1,0.26,0.36
CG4982,1,0.67,0.62
SmydA-6,1,0.26,0.26
Ugt305A1,1,0.11,0.23
CG3349,1,0.33,0.41
CG34144 (retired record),1,0.05,1.04
CG34144 (retired record),2,-0.44,0
CG34144 (retired record),3,0.56,0.51
Arl6,1,0.32,0.09
CR31700,1,0.64,0.09
CG6428,1,0.42,-0.22
CG43774 + CG43773,1,0.29,0.2
CG43774 + CG43773,2,0.19,0.28
CG10466,1,-0.04,-0.03
Oseg1,1,0.24,0.27
CG32248,1,-0.06,0.48
mthl5,1,0.25,-0.11
CG7430,1,0.41,0.44
CG13742 + CNT1,1,0.36,0.26
snoRNA:Me28S-A982b + Uhg4 + snoRNA:Me28S-G3255a + 1 more,1,0.09,
Vav,1,0.49,0.44
CG42588,1,-0.63,0.28
CG42588,2,-0.14,0.05
CG31551,1,0.14,0.3
CG31551,2,-0.22,-0.1
CG15423,1,-0.79,-0.36
CG5255,1,0.14,-0.24
PPP1R15,1,-0.44,-0.22
Tina-1,1,0.45,0.29
qkr58E-1,1,-0.08,-0.06
CG42324,1,0.21,0.27
CG42324,2,0.18,0.19
CG3604,1,-0.25,0.34
CG12521,1,0.22,0.04
CG43795,1,0.35,0.17
CG43795,2,-0.39,0.4
CG43795,3,0.03,0.07
CG43795,4,0.33,0.25
CG43795,5,0.21,-0.01
CG43795,6,0.26,0.46
CG43795,7,0.12,-0.01
CG8960,1,-0.19,0.01
CG31862,1,0.17,-0.05
CG2854,1,0.42,0.47
CG14321,1,0.29,-0.33
Cdk2,1,-0.41,-0.63
Eaf,1,-4.24,
Eaf,2,0.1,0.13
Eaf,3,0.38,0.17
Hip14,1,0.38,0.24
Rab9Db + Rab9D + Rab9Fa + 1 more,1,0.15,0.18
CG7567,1,0.22,0.34
CG17260,1,0.42,0.46
RpL40,1,-3.95,-2.87
TotC,1,0.23,0.19
CG31870,1,0.23,0.28
CG43174 (retired record) + CG43173 (retired record),1,0.3,0.36
BTBD9,1,0.37,0.55
BTBD9,2,1.31,0.99
Osi23,1,0.2,0.56
Culd,1,0.5,0.44
RpS23,1,-2.01,-2.59
AstA,1,0.48,0.48
spdi,1,0.21,0.06
spdi,2,0.59,0.22
sog,1,-0.28,-0.51
CG33099,1,0.34,0.3
bt,1,0.27,0.14
bt,2,0.13,0.19
CG18539,1,0.32,0.13
lncRNA:CR43493 + l(1)G0196,1,0.59,0.67
CG2871,1,0.43,0.3
CG2871,2,0.05,0.26
eIF3g2,1,0.21,0.17
dj,1,0.44,0.4
yip7,1,0.23,0.31
CG11425,1,0.09,0.37
Caf1-180,1,0.33,0.44
CG8944,1,0.23,0.47
CG8944,2,0.82,0.3
